## Screening data

From PubChem BioAssay record AID1159506 (NCATS, 2015).

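Genome-wide siRNA knockdown in TC32 Ewing sarcoma cells, comparing luciferase light from an NR0B1-promoter reporter with a CMV-promoter reporter 48 hours after transfection.
Each siRNA was applied at 20 nM.
A z-score of the log NR0B1-over-CMV signal, less the median of siRNAs with the same seed; more negative means a stronger specific loss of the NR0B1 reporter.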

The strongest results of the screen are mostly left out here.
Sequences are the guide (antisense) strand, without overhang.

| # | strand | target gene | seed-corrected z-score |
|---|---|---|---|
| 1 | `UCUUGUUCAGCUGAAUUCC` | WAS | 0.7834 |
| 2 | `UUUCUUCUGAGCGAUGAGC` | SUGP1 | 1.37 |
| 3 | `UUUAAUUGCACCUGUUUGG` | DTWD2 | 0.6776 |
| 4 | `ACAGUUAUUAUUGCAGGGC` | SLCO3A1 | -0.3935 |
| 5 | `UCACUGUAUCGCGGGUUGU` | BTBD19 | 0.8466 |
| 6 | `UCAAUGACAUCGAUCAUGG` | GALNTL6 | -0.3 |
| 7 | `UAGUGGAUAACUUAGCAGU` | UBE2E3 | -0.2806 |
| 8 | `UUGUAGUCAAAGGUCUUGC` | SSRP1 | 0.9791 |
| 9 | `UUGGUGUAACUGACAGUGC` | DDR2 | -0.2703 |
| 10 | `AUAUUUGGAACAUCCAUGU` | EIF5A2 | -0.6851 |
| 11 | `AUCAGUCCCACGAAUAUUC` | ANXA8L1 | 0.1062 |
| 12 | `UAUAAGUUCUUCGAUGUUG` | ZNF519P3 | -0.2338 |
| 13 | `UUCAUGUAACCAUUCUCUG` | SRPX | 1.054 |
| 14 | `AGAUGUAACAGGAAGUGAG` | C17orf77 | 0.2612 |
| 15 | `UUACCUUAAGCUGCCGUGC` | RRAS2 | 0.3201 |
| 16 | `UCUUGGAUCGGCUCUGCUG` | GPR37L1 | 0.02141 |
| 17 | `UUCAAAUUUCCUUAGAUGC` | LINC00284 | 0.09531 |
| 18 | `AAGAUGUUCCUGUAGCUCG` | LSS | 0.6661 |
| 19 | `UGAUUAGUCAGGUUGAGGC` | C2CD5 | 1.271 |
| 20 | `AAUAUGGUAGACAAGUUUG` | CNOT11 | 1.293 |
| 21 | `UGCUUUUCAAGAUAACGAG` | DHRS3 | 2.453 |
| 22 | `UAGAAUCCCGAGUCAUUCU` | TREML4 | -0.1029 |
| 23 | `UUCGGUUUCAUUGUCUACG` | ATP13A3 | -0.9186 |
| 24 | `UGCACACUCAGGUACUUCC` | MTCH1 | 0.2021 |
| 25 | `AACUUGAUGAAAUAGACGG` | SPIN1 | -0.3952 |
| 26 | `UGAGUAAGUUGAGAUGGGC` | OR5V1 | -1.764 |
| 27 | `UUAGUGCCUCUGGACAUCC` | POLA2 | 0.09202 |
| 28 | `UGAUGAAUUGUGCAAACUG` | NF1 | -0.3178 |
| 29 | `UUCAAGUUCGGUACAGUGC` | KLHL9 | -0.6274 |
| 30 | `AACUGAAAACCCAUAAUGC` | GPR18 | -0.2579 |
| 31 | `UCCUUAAUACUUCCUGACC` | C21orf58 | 0.217 |
| 32 | `UAGUAGCCAUUUCCAUAGC` | KRTAP20-1 | 0.7691 |
| 33 | `UGUGCAUAAAGAGUCACCG` | PMPCB | -0.3209 |
| 34 | `UAGCUGUACAGUGCGAUGG` | BEST2 | -1.458 |
| 35 | `UUUUCGAUUAAGCACUGCG` | CARD11 | 0.6977 |
| 36 | `UAUGGUAUAGCCCUGACGC` | CACNA1E | 0.732 |
| 37 | `UUGGUUCAUAAACUAAACC` | ERGIC2 | 0.2802 |
| 38 | `UCAGGUACUGGGAGUCUCC` | LRRC74B | -1.034 |
| 39 | `UUGACGGCAAUCACUGUCU` | E2F2 | 0.2765 |
| 40 | `UCUGUUUGAACUUCCGACG` | SIK3 | -1.695 |
| 41 | `UAUCCUUCCAGAUCAAAUG` | SLC35D1 | -0.2922 |
| 42 | `UACUGAGCAAAUAAGGACC` | FCRL3 | 0.4566 |
| 43 | `UGCAUUUGUAGAGCUUCCG` | NHP2 | -0.7217 |
| 44 | `AAGUUGAUUCGAGACAUGG` | TAP2 | -0.511 |
| 45 | `UCCAGUUCAACGGACACCU` | CPSF4 | -0.444 |
| 46 | `UUCCGUUUCAUAUAAUACG` | GUCY1A3 | 0.3048 |
| 47 | `UUCUUCACCGCUCUCGUUG` | CCR2 | -0.3475 |
| 48 | `AUCCCGAAAAAGAACAUGC` | BBS9 | -0.05511 |
| 49 | `UUUUGACAUAGCAAAAUCC` | LYVE1 | 0.9918 |
| 50 | `UUAUGAGUCUGUUCAUGUC` | ZNF770 | -0.08676 |
| 51 | `UCAUGCGCAACAGUGACAG` | CYP2A6 | -0.1043 |
| 52 | `UUAGUUCUCCGGUAGUGCC` | CNTN2 | -0.2352 |
| 53 | `UAACUUCAUGUUGUCCUCC` | LEMD2 | 0.2074 |
| 54 | `UGUGCACUCACGGUGGAAC` | PYGO2 | -1.21 |
| 55 | `ACACUUGCCGGUGACAUGG` | SCARF2 | -0.3538 |
| 56 | `AUCCUUAUAAUGAUUCCAG` | RAMP2 | -0.6843 |
| 57 | `UAUUAGUAUUACAUACUCC` | CHIC1 | 1.574 |
| 58 | `UACAAAAACACUAGAGUUG` | NUDT11 | 1.039 |
| 59 | `UCAUUGACCAGCUCGGGAC` | KDM4B | -0.008659 |
| 60 | `UGCUUCUGCAGUUUGGUUU` | C16orf45 | -0.2727 |
| 61 | `AUUGAUGAGCUUGUUUUCC` | HOXA6 | -1.93 |
| 62 | `UGAGUUUUUAGGAGUGGGU` | NDUFB4 | 0.5837 |
| 63 | `AAGUUGCCCAUCUAUUUCC` | GBP5 | -0.2983 |
| 64 | `AAAACGACUAGACUCCAGG` | NDST2 | -0.5729 |
| 65 | `UCUAUAUCGAGACAGGCUG` | NOP58 | 0.3034 |
| 66 | `UAAGGCAAUAGUGACUGGA` | IL36A | 0.749 |
| 67 | `UGUCGAAAAAGGAUGUUAG` | AVL9 | 0.4817 |

For reference, 6 entries once more:

| strand | target gene | seed-corrected z-score |
|---|---|---|
| `UGAUGAAUUGUGCAAACUG` | NF1 | -0.3178 |
| `UUUCUUCUGAGCGAUGAGC` | SUGP1 | 1.37 |
| `UUCAUGUAACCAUUCUCUG` | SRPX | 1.054 |
| `AACUGAAAACCCAUAAUGC` | GPR18 | -0.2579 |
| `UUCCGUUUCAUAUAAUACG` | GUCY1A3 | 0.3048 |
| `UUGGUUCAUAAACUAAACC` | ERGIC2 | 0.2802 |